The values that follow come from the supplement of paper PMC10077471.

The structures appear in SMILES notation. Over roughly 1,900 compounds, “excess over highest single agent (ExcessHSA) synergy score, 6x6 matrix” has its median near -83; the lowest 2% begin near -370. The list shows a part of the results.

The subject of the assay is NCI-H446. Briefly: excess over highest single agent (ExcessHSA) synergy score, 6x6 matrix; higher = less synergy (more negative = stronger synergy). To be noted: 72 h; CellTiter-Glo viability. (In general: In ATP-based viability assays light output follows the ATP content of the culture.)
As to `COc1ccc(S(=O)(=O)Nc2cc(-c3c(O)ccc4ccccc34)c(O)c3ccccc23)cc1` + Cc1sc2c(c1C)C(c1ccc(Cl)cc1)=N[C@@H](CC(=O)OC(C)(C)C)c1nnc(C)n1-2 [NCGC00250412-19], the “excess over highest single agent” value is -69.5.

Regarding `Nc1cccc2c1C(=O)N(C1CCC(=O)NC1=O)C2=O` (stereo unspecified) + Cc1sc2c(c1C)C(c1ccc(Cl)cc1)=N[C@@H](CC(=O)OC(C)(C)C)c1nnc(C)n1-2 [NCGC00250412-19], the “excess over highest single agent” value was -176.

As for `COc1cc(C)c(Sc2cnc(NC(=O)c3ccc(CNC(C)C(C)(C)C)cc3)s2)cc1C(=O)N1CCN(C(C)=O)CC1` (stereo unspecified) + Cc1sc2c(c1C)C(c1ccc(Cl)cc1)=N[C@@H](CC(=O)OC(C)(C)C)c1nnc(C)n1-2 [NCGC00250412-19], the “excess over highest single agent” value is -309.

As to `CC(C)n1nc(-c2ccc3oc(N)nc3c2)c2c(N)ncnc21` + Cc1sc2c(c1C)C(c1ccc(Cl)cc1)=N[C@@H](CC(=O)OC(C)(C)C)c1nnc(C)n1-2 [NCGC00250412-19], the “excess over highest single agent” value was -212.

Take `N[C@@H](Cc1c[nH]c2ccc(O)cc12)C(=O)O` + Cc1sc2c(c1C)C(c1ccc(Cl)cc1)=N[C@@H](CC(=O)OC(C)(C)C)c1nnc(C)n1-2 [NCGC00250412-19]: the “excess over highest single agent” value is -48.2.

Take `N=C(N)Nc1ccc(C(=O)Oc2ccc3cc(C(=N)N)ccc3c2)cc1` + Cc1sc2c(c1C)C(c1ccc(Cl)cc1)=N[C@@H](CC(=O)OC(C)(C)C)c1nnc(C)n1-2 [NCGC00250412-19]: the “excess over highest single agent” value was determined as 92.9.

For `CCCCCCCCCCCCCCCC(=O)OC[C@@H](NC(=O)C(Cl)Cl)[C@H](O)c1ccc([N+](=O)[O-])cc1` + Cc1sc2c(c1C)C(c1ccc(Cl)cc1)=N[C@@H](CC(=O)OC(C)(C)C)c1nnc(C)n1-2 [NCGC00250412-19], the “excess over highest single agent” value was determined as 174.

On to `CC1(C)CC(=O)c2c(C(F)(F)F)nn(-c3ccc(C(N)=O)c(N[C@H]4CC[C@H](O)CC4)c3)c2C1` + Cc1sc2c(c1C)C(c1ccc(Cl)cc1)=N[C@@H](CC(=O)OC(C)(C)C)c1nnc(C)n1-2 [NCGC00250412-19], for which the “excess over highest single agent” value is -379.

As to `O=C(O)/C=C/c1ccc(O)c(O)c1` + Cc1sc2c(c1C)C(c1ccc(Cl)cc1)=N[C@@H](CC(=O)OC(C)(C)C)c1nnc(C)n1-2 [NCGC00250412-19], the “excess over highest single agent” value is -109.

Consider `CCCCc1nc2cc(/C=C/C(=O)NO)ccc2n1CCN(CC)CC` + Cc1sc2c(c1C)C(c1ccc(Cl)cc1)=N[C@@H](CC(=O)OC(C)(C)C)c1nnc(C)n1-2 [NCGC00250412-19], for which the “excess over highest single agent” value is -123.

As to `COc1ccc(OC)c(-c2nnc3ccc(-c4ccc(OC)c(O[C@@H]5CCOC5)c4)nn23)c1` + Cc1sc2c(c1C)C(c1ccc(Cl)cc1)=N[C@@H](CC(=O)OC(C)(C)C)c1nnc(C)n1-2 [NCGC00250412-19], the “excess over highest single agent” value was -99.4.
